Results published in PMC9380745.
Results are given in words; binding and its absence hold for the method and conditions named. In cells and extracts the contact can be indirect. Some results given as binding are weak or reduced against the parent protein; the word gives no strength. Where a sequence is shown, tags or fusion partners need not be part of it.

Amino acid sequences for entries named in this document (tags omitted).
UniProt Q9UJV9: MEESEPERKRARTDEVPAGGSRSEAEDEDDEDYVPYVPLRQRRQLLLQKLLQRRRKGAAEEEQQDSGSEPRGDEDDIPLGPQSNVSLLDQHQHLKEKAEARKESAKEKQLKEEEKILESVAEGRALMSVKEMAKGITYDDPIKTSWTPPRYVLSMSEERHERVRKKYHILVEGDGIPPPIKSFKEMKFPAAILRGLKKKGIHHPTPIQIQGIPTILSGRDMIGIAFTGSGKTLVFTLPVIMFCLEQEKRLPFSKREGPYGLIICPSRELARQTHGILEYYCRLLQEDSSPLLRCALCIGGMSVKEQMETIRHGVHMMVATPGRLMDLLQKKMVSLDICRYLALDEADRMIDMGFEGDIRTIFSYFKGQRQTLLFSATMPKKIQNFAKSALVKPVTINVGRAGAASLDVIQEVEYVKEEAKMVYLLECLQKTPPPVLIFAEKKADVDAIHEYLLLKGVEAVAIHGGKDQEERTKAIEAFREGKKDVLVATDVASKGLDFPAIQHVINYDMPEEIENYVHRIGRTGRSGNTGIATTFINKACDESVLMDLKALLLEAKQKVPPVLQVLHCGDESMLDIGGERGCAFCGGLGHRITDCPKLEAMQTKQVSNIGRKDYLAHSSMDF
UniProt Q96Q15: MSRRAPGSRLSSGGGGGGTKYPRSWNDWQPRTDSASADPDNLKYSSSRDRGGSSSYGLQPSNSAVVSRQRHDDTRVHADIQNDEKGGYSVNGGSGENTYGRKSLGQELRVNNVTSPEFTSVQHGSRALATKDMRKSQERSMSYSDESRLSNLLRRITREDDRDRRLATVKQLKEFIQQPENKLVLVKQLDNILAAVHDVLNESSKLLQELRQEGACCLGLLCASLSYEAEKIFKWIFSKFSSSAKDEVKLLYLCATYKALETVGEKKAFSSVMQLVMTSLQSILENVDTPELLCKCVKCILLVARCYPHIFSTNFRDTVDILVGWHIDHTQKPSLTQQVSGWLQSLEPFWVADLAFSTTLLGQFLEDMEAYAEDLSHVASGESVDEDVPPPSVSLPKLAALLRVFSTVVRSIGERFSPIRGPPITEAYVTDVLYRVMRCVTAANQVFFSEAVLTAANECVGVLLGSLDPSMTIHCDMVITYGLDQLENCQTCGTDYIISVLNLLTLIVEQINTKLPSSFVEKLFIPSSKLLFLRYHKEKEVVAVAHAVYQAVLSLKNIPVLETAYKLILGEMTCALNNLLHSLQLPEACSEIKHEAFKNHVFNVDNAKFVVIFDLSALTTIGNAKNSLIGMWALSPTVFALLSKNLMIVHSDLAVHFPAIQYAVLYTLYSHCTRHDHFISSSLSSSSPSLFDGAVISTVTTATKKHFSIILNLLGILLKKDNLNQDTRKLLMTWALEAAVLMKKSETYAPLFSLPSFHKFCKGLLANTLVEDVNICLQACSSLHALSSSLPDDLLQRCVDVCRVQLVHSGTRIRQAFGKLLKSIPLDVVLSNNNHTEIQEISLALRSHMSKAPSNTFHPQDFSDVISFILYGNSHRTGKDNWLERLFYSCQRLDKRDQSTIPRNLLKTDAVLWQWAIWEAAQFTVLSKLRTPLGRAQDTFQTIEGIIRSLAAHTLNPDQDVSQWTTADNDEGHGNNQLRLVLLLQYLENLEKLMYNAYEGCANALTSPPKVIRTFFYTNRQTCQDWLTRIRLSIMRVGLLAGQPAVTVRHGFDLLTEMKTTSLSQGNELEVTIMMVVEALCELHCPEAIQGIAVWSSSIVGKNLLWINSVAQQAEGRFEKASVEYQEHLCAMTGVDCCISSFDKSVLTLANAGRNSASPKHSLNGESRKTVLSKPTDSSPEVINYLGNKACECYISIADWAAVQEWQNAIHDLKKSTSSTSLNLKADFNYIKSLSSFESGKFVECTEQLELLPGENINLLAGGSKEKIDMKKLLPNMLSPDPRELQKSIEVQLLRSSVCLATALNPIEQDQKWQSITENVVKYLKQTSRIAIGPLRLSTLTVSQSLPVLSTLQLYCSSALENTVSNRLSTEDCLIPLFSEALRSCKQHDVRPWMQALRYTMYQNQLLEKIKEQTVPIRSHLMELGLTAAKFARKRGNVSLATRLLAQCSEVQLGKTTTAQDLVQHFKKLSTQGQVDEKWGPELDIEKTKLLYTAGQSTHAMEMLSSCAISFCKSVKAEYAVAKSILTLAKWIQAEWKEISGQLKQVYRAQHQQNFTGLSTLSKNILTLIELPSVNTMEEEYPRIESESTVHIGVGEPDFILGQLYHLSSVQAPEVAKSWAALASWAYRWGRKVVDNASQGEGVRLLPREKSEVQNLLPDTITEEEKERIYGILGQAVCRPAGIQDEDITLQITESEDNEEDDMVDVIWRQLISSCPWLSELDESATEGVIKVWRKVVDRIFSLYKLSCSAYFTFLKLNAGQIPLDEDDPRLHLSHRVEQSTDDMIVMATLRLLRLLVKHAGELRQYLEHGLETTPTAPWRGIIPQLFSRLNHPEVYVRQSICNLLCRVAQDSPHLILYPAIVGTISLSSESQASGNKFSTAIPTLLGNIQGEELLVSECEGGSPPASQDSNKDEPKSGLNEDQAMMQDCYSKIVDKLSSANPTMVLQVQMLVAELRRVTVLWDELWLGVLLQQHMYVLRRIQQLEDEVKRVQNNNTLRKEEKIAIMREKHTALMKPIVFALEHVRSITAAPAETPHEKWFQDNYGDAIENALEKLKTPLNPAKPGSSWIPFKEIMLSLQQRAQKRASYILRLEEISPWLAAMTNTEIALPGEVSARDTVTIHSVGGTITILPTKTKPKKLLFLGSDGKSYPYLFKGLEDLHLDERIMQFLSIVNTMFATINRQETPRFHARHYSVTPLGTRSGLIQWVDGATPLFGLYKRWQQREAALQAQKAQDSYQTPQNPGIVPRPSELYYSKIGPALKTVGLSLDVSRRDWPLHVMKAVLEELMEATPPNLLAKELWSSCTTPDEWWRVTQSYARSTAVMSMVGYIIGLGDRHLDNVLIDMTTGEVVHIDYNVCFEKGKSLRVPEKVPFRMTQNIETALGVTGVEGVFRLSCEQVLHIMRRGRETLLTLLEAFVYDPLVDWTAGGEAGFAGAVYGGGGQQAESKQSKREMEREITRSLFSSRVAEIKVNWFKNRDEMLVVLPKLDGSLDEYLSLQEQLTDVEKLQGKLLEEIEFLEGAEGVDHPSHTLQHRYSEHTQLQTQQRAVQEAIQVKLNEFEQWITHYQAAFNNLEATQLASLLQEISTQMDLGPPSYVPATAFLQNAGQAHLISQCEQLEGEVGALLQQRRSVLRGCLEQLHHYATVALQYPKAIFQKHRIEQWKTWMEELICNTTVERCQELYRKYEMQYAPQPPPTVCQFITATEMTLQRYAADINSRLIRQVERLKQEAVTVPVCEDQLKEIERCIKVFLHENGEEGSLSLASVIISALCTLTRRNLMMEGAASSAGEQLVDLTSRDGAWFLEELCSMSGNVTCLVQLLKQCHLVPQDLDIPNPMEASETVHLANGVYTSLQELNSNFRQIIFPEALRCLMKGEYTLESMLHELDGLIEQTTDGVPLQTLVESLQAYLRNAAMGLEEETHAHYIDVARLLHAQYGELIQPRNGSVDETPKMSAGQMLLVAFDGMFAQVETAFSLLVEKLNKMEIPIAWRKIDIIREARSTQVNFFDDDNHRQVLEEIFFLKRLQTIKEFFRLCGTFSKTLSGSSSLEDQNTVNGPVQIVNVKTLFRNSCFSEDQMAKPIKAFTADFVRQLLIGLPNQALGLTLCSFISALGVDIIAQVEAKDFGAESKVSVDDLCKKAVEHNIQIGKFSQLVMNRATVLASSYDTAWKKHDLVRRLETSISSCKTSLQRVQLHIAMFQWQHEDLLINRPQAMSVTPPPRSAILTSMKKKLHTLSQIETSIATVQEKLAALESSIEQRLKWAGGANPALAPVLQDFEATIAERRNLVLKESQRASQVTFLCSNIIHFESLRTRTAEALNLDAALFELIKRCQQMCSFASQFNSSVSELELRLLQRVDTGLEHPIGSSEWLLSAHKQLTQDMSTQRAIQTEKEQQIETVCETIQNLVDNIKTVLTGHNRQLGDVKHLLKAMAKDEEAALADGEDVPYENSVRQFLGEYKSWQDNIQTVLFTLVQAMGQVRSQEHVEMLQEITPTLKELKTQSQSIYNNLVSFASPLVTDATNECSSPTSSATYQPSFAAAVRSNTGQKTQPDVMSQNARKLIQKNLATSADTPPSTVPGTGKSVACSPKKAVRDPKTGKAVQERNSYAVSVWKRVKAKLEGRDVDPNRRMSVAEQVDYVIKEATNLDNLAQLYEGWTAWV

T1: DHX34–GFP–FLAG (human (endogenous in HEK293T)) (UniProt Q14147)
T1 sequence: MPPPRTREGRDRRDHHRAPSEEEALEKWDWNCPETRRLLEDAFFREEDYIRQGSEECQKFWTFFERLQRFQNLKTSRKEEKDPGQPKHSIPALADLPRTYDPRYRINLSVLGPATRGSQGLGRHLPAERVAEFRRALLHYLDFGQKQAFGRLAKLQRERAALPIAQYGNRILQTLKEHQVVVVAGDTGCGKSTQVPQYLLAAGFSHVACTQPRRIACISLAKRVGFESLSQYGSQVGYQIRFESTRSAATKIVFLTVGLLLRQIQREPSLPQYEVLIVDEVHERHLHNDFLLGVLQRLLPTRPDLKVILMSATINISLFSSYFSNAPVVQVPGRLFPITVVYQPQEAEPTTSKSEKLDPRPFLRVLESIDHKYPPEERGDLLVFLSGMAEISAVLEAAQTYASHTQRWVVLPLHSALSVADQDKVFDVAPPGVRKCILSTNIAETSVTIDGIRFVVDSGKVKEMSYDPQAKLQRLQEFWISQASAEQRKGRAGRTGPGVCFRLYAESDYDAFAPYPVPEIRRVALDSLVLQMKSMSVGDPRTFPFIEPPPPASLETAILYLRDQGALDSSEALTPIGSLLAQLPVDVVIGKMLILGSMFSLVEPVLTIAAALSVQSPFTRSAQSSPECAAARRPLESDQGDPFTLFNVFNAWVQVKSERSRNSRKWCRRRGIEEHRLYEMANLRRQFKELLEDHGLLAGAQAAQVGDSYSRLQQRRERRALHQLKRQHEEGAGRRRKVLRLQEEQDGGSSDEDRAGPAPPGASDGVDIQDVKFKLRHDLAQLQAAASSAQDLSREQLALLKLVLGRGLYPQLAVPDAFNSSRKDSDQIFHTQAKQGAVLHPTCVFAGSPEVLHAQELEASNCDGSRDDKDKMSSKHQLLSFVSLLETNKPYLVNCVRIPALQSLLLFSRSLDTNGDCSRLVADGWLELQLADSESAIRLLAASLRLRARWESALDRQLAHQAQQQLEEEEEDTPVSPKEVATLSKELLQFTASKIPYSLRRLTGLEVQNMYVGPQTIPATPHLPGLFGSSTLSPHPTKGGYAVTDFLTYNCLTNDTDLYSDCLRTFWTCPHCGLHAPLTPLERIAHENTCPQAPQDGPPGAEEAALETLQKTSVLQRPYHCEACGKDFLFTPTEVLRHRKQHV

B1: ISY1 (protein, UniProt Q9ULR0 1-285)
chain: MARNAEKAMTALARFRQAQLEEGKVKERRPFLASECTELPKAEKWRRQIIGEISKKVAQIQNAGLGEFRIRDLNDEINKLLREKGHWEVRIKELGGPDYGKVGPKMLDHEGKEVPGNRGYKYFGAAKDLPGVRELFEKEPLPPPRKTRAELMKAIDFEYYGYLDEDDGVIVPLEQEYEKKLRAELVEKWKAEREARLARGEKEEEEEEEEEINIYAVTEEESDEEGSQEKGGDDSQQKFIAHVPVPSQQEIEEALVRRKKMELLQKYASETLQAQSEEARRLLGY

Target: T1, DHX34–GFP–FLAG (human (endogenous in HEK293T))
Assay: co-IP; anti-GFP MA magnetic beads (ChromoTek) on lysates of CRISPR DHX34–GFP–FLAG HEK293T clones; IP buffer 20 mM Tris-HCl pH 8, 150 mM NaCl, 1 mM EDTA, 1% NP-40, 0.2% deoxycholate, 1 mM DTT; lysates treated with 80 µg/mL RNase A; western blot

Row | Molecule | binding
1 | DDX41 (from UniProt Q9UJV9 1-622) | binds
2 | Serine/Threonine-protein kinase SMG1 (from UniProt Q96Q15 1-3661) | binds
3 | B1 | binds
